Reference: PubChem BioAssay AID504791 (Drosophila RNAi Screening Center, 2011)

Screen: 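Genes of the fly required for silencing by miRNA, siRNA or endo-siRNA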 (primary screen)
System: Drosophila S2-derived reporter cells
Reagent: long dsRNA against Drosophila genes, about 150-250 ng dsRNA per well (siRNA assay); about 80-120 ng (miRNA assay)
Duration: about 5 days (siRNA assay); about 4 days (miRNA assay)
Treatment: copper sulfate induction of reporters: 25 µM (siRNA assay); 200 mM stated (miRNA assay), 1-2 days before reading
Read-out: 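Dual luciferase assay: Renilla to firefly signal ratio in each well, scaled to the mean ratio of its plate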
Call rule: 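a well was a first-pass pick when its plate-scaled ratio rose above 1.5 (siRNA assay) or 1.6 (miRNA assay), or dropped below 0.6; a gene counted only if two separate dsRNAs agreed on retest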
The deposit covers about 23,000 reagents; shown is a random part of those that have a named target and a result. Of all reagents, 199 (0.86%) were called active. 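Plate-scaled ratios behind the calls are not deposited; printed light signals are raw; many rows marked increased or decreased are still called inactive.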 Names joined by + are all predicted targets of the reagent. Not all columns of the deposit are shown. Not stated in the record: the direction of the score.

target gene | amplicon | stable siRNA reporter change | miRNA reporter change | stable assay Renilla, run 1 (luminescence) | outcome
aqz | DRSC16570 | – | – | 5023 | inactive
Isha | DRSC04456 | – | – | 3.46e5 | inactive
Doa | DRSC13892 | – | – | 5099 | inactive
Doa | DRSC13893 | – | – | 3871 | inactive
Doa | DRSC13895 | – | – | 2851 | inactive
Doa | DRSC13896 | – | – | 5298 | inactive
Doa | DRSC13897 | – | – | 4656 | inactive
Doa | DRSC16650 | – | – | 9318 | inactive
wcd | DRSC07051 | – | – | 8409 | inactive
imd | DRSC05928 | – | – | 12220 | inactive
PGRP-SB2 | DRSC11092 | – | – | 7087 | inactive
CG18518 | DRSC01509 | – | – | 5770 | inactive
Gnmt | DRSC15987 | – | – | 6908 | inactive
Pka-C2 | DRSC16790 | – | – | 6620 | inactive
Pka-C2 | DRSC23310 | – | – | 4239 | inactive
CG32259 | DRSC08082 | – | – | 5016 | inactive
CG15200 | DRSC19647 | – | – | 4867 | inactive
Snx6 | DRSC03081 | – | – | 28441 | inactive
PGRP-SC1a | DRSC06482 | – | – | 6388 | inactive
CstF50 | DRSC15434 | – | – | 10358 | inactive
Lcp1 | DRSC07455 | – | – | 5736 | inactive
4E-T | DRSC17201 | – | – | 7323 | inactive
4E-T | DRSC17208 | – | – | 5502 | inactive
Ilp7 | DRSC17895 | – | – | 6852 | inactive
hrg | DRSC07502 | reporter ratio raised past the hit cutoff | – | 8594 | active
CG12853 | DRSC06193 | – | – | 3699 | inactive
tomboy20 | DRSC14913 | – | – | 6955 | inactive
CG1578 | DRSC19729 | – | – | 8560 | inactive
Dscam4 | DRSC08911 | – | – | 5690 | inactive
Dscam4 | DRSC08913 | – | – | 5279 | inactive
Dscam4 | DRSC10031 | – | – | 6190 | inactive
Dscam4 | DRSC10329 | – | – | 6123 | inactive
Dscam4 | DRSC10765 | – | – | 5588 | inactive
CG1722 | DRSC20547 | – | – | 6466 | inactive
bru3 | DRSC09280 | – | – | 6635 | inactive
bru3 | DRSC09687 | – | – | 9075 | inactive
bru3 | DRSC09887 | – | – | 7250 | inactive
bru3 | DRSC22732 | – | – | 2339 | inactive
KP78a + KP78b | DRSC16721 | – | – | 6867 | inactive
KP78a + KP78b | DRSC16722 | – | – | 6218 | inactive
CG2712 | DRSC18589 | – | – | 8611 | inactive
vkg | DRSC03632 | – | – | 7824 | inactive
Rexo5 | DRSC10981 | – | – | 7623 | inactive
Octbeta2R | DRSC15350 | – | – | 6690 | inactive
Octbeta2R | DRSC16165 | – | – | 6546 | inactive
Abl | DRSC09661 | – | – | 7170 | inactive
Abl | DRSC23306 | – | reporter ratio raised past the hit cutoff | 4834 | inactive
CG42662 + CG30080 | DRSC05571 | – | – | 6399 | inactive
RpL18 | DRSC11016 | reporter ratio raised past the hit cutoff | – | 5867 | inactive
RpL18 | DRSC22323 | – | – | 9540 | inactive
Dhc64C | DRSC08656 | – | – | 8552 | inactive
CG32107 | DRSC09221 | – | – | 5390 | inactive
mtTFB1 + Ccdc56 | DRSC10809 | – | – | 3464 | inactive
Prosalpha5 | DRSC07514 | reporter ratio raised past the hit cutoff | – | 15722 | active
CG1142 | DRSC12531 | – | – | 5907 | inactive
CG13999 | DRSC02331 | – | – | 9126 | inactive
kon | DRSC02033 | – | – | 6328 | inactive
PsGEF | DRSC18596 | – | reporter ratio lowered past the hit cutoff | 5516 | inactive
dbe | DRSC00811 | – | – | 13392 | inactive
COX1 (retired record) | DRSC21275 | – | – | 5536 | inactive
CNT2 | DRSC07073 | – | – | 8666 | inactive
Phlpp | DRSC02065 | – | – | 6871 | inactive
Phlpp | DRSC22808 | – | – | 4968 | inactive
Smyd4-2 | DRSC10126 | – | – | 6516 | inactive
Pex16 | DRSC11750 | – | – | 9181 | inactive
CG3253 | DRSC04350 | – | – | 9247 | inactive
CG12171 | DRSC12200 | – | – | 7651 | inactive
CG32320 | DRSC21514 | – | – | 8223 | inactive
OtopLb | DRSC00594 | – | – | 22461 | inactive
Ttc26 | DRSC15591 | reporter ratio raised past the hit cutoff | – | 6855 | inactive
CG42673 | DRSC08989 | – | – | 5247 | inactive
CG42673 | DRSC08991 | – | – | 2223 | inactive
CG42673 | DRSC10177 | – | – | 4894 | inactive
CG42673 | DRSC10264 | – | – | 7580 | inactive
CG42673 | DRSC10353 | – | – | 7146 | inactive
CG42673 | DRSC10354 | – | – | 6079 | inactive
kek2 | DRSC03552 | – | – | 7386 | inactive
CG42685 | DRSC01971 | – | – | 5155 | inactive
fh | DRSC18430 | – | – | 4915 | inactive
CG42710 | DRSC01034 | – | – | 4523 | inactive
Ibf2 | DRSC16551 | – | – | 6967 | inactive
mRpS35 | DRSC08551 | – | – | 7052 | inactive
clumsy | DRSC03111 | – | – | 5902 | inactive

A run of entries taken from the entries so far:
target gene | amplicon | stable siRNA reporter change | miRNA reporter change | stable assay Renilla, run 1 (luminescence) | outcome
Prosalpha5 | DRSC07514 | reporter ratio raised past the hit cutoff | – | 15722 | active
CG1142 | DRSC12531 | – | – | 5907 | inactive
CG13999 | DRSC02331 | – | – | 9126 | inactive
kon | DRSC02033 | – | – | 6328 | inactive
PsGEF | DRSC18596 | – | reporter ratio lowered past the hit cutoff | 5516 | inactive
dbe | DRSC00811 | – | – | 13392 | inactive
COX1 (retired record) | DRSC21275 | – | – | 5536 | inactive
CNT2 | DRSC07073 | – | – | 8666 | inactive
